Measured values: the supplement of paper PMC11237882
This is one part of the list. Values are worked out from sequencing counts and are noisy.

T1: Homer1 EVH1 domain
T1 chain: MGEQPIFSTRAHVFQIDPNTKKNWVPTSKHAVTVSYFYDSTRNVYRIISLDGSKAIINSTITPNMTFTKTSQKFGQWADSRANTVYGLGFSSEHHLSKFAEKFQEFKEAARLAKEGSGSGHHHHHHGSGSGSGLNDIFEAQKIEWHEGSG


Target: T1, Homer1 EVH1 domain
Test: enrichment score (AUC of log2 frequency ratio across FACS sorting rounds) (log2 AUC); higher = stronger enrichment for Homer1 EVH1 binding

Binder	enrichment score
LPTLGDVESLVPLYLHLSVNQKLVAAYILGLITMAI	0.517
MKLAFLFLGPMALLLLAGYGCVLGASSGNLRTFVGY	0.472
ISVVSFFVLMASYLIILHFLRSHNLEGQHKALSTYA	1.43
PAWFEDFANGLLSAQKLTAALIVLHTVFISITHVHR	2.36
GVDEYGWIAAAVGWSLWFLTLILLCVDKLMKLTPDE	4.51
EKWLQDNLIVVAGVFMGIALLQIFGICLAQNLEQME	3.7
QPSQQTTPALVLAPAQFLSSSPRPTSSGYSIFHLAG	5.84
LNQRFSITAQLLVLYYILSYEEALLANTKTLSAMQR	2.99
GICLLITIQLFVAGLIVLLLDELLQKGYGLGSGISL	0.417
LICFLVMSSSYLAFRISRLEQQLCSLSWDDPVPGHR	2.85
FSVPKYSKFSKPTCFLLEVPEANWAFLVLPSLLILL	-0.204
RPRKEPVDEDLYPEHYQKYSDYIKGSNLDAPEPYRM	6.2
GGPRTAKLLTSCLFVLLWPLYIFFSSLEAYCHIKGF	-1.32
PHFFCDMSALLKLAFSDTRVNEWVIFIMGGLILVIP	2.18
QCSPLGCLIRILIDGISLGLTLRLWDVYLVEGEQAL	1.48
VPSEIYRFGTQYWFLGCCYFLGLLIPAHIFIPVFYS	3.16
QAVQDSSLPRVARCYRHNRLPVVCWKNSRSGTLLLR	-0.345
VSSLFLFSVLLFVAVRLCRRSRAAPVGRCSVPEGPF	-0.855
LPRGPTTPDEGCLRYFVLGTVAALVALVLNVFYPLV	-1.44
MALLFLLPLVMQGVSRAEMGTADLGPSSVPTPTNVT	3.24
MALGVFFGLVFTWLACKGQGSMDEGTADERAPLIRT	3.78
MAVLLLLLRALRRGPGPGPRPLWGPGPAWSPGFPAR	0.931

Binder	enrichment score
LKRRSSFYIVNLLIPCVLISFLAPLGFYLPAASGEK	1.87
SLRWQLLSIIVLMAGQQLSGINAINYYADTIYTSAG	1.25
CKDNIHKALQFFAKGYGKNNEPLRGYILTFLIAMAL	2.06
GIMGLYKGLEAKLLQTVLTAALMFLVYEKLTTATFT	4.11
PSNFRDCGQWFRHLLYAVTKLPQITEIGMKRWILPS	0.584
TWLSFTLFVILVFFPLIAHYYLTTLDEADEAGKRIF	3.67
VFLLNPWTAGIIVMVLALMTVELFGMMGLIGIKLSA	1.8
LIVSCCWLAVLVTMPAALGLWSLYLAPLESSCQTSC	-0.982
PMYLFLCTLSVSEILFTVAITPRMLADLLSTHHSIT	-1.4
SLVVGIFGLYIFLFDEATKADPLWGGPSLANVNIAI	-0.383
GEEYLVKQGIDLSPWGLWKNHVALACMIVIFLTIAY	3.64
PTRPPATPGRPGSPIWGLPPRGLPSVRVPRHRGLQP	2.99
SYHEVGLLLLFLSVGISIFSVLIYSVEKDDHTSSLT	3.95
PGLYFRACWLFLSPATLLALLVYSIVKYQPSEYGSY	2.48
PFASLKKVGQDSIVLLICITVFLSYLPEAGQYSSFF	2.17
MATATEQWVLVEMVQALYEAPAYHLILEGILILWII	-0.0412
NLSETNLLPQSLQHYLPIRSPSLVPCFLFIFFFLLS	3.14
MFDDYSATLPLLIVVILENIAVCFVYGIDKFMEDLK	0.899
CGKRVFAVTETLQMSIYHFAGLFVLLCLGLGSALLS	3.88
NLRQIMVISVLAAAVSLLYFSVVIIRNKYGRLTRDK	2.29
MRALEGPGLSLLCLVLALPALLPVPAVRGVAETPTY	2.84
DLLVTSLGVVWVVLHFALLNAYTYMMGACVIVFRFF	1.37
